# Assay results published in the supplement of paper PMC12067093, “Discovery and optimisation of a covalent ligand for TRIM25 and its application to targeted protein ubiquitination” (Chemical Science, 2025).
# Protein sequences, listed by entry. Tags and fused reporters are not part of them. Lines headed by an entry give the natural chain unless they say otherwise; changes in a name come on top.
# UniProt Q9NW08: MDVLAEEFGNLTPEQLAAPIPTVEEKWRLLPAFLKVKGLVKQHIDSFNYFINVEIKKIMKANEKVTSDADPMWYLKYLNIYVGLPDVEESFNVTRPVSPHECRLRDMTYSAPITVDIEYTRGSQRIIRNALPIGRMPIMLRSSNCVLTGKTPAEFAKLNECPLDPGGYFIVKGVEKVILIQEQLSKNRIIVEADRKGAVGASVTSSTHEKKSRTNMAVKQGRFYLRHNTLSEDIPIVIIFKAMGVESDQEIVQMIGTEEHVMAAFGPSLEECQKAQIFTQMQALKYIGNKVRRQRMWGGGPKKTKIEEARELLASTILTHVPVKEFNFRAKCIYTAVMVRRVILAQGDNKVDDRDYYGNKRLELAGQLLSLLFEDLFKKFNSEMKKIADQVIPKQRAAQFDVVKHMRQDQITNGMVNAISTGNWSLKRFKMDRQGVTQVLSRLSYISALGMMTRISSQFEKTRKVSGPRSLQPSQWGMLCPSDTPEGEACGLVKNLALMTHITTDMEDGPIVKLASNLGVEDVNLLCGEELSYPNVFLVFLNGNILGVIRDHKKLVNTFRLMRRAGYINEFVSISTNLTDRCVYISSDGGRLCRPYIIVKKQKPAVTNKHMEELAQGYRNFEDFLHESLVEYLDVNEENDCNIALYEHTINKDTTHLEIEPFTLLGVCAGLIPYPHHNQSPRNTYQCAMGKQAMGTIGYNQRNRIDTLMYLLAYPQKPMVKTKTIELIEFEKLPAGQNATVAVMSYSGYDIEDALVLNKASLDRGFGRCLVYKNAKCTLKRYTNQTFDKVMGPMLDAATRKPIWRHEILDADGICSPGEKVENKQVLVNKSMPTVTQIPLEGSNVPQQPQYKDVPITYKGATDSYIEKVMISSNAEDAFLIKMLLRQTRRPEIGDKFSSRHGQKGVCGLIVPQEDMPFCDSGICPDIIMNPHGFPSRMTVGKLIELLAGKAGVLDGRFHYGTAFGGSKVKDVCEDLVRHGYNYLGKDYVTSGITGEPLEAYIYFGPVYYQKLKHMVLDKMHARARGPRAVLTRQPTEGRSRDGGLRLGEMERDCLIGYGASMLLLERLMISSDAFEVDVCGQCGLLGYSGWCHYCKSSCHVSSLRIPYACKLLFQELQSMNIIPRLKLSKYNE
# UniProt Q9H9Y6, whole entry, looked up: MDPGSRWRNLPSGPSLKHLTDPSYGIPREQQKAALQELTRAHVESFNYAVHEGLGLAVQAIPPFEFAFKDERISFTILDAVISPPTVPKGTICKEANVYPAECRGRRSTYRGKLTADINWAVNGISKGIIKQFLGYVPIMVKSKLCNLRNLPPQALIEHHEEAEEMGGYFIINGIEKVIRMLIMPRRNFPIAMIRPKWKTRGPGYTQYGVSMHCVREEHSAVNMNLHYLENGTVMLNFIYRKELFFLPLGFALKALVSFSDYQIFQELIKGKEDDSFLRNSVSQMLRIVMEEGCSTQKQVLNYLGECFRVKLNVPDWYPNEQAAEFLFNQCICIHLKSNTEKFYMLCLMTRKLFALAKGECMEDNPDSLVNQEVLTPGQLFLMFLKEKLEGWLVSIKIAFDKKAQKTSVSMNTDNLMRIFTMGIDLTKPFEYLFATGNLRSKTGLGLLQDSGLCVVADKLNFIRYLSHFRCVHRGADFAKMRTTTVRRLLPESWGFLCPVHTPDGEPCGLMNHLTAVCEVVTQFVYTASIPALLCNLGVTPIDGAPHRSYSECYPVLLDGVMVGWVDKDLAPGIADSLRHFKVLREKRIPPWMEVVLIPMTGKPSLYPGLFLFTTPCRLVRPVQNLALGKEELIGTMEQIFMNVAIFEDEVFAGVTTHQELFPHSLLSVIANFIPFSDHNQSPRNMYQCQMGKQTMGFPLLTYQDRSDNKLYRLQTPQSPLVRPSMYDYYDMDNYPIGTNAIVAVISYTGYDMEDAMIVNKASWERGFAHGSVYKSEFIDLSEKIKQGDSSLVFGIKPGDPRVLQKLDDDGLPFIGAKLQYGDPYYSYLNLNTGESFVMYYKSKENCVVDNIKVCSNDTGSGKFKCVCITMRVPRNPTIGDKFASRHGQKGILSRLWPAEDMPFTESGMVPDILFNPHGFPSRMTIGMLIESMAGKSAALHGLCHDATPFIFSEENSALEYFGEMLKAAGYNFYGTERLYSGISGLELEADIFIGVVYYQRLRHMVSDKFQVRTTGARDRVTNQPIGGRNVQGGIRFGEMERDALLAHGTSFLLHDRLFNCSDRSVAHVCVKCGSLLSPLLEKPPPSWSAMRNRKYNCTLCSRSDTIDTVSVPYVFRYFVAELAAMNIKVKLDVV
# UniProt P28340: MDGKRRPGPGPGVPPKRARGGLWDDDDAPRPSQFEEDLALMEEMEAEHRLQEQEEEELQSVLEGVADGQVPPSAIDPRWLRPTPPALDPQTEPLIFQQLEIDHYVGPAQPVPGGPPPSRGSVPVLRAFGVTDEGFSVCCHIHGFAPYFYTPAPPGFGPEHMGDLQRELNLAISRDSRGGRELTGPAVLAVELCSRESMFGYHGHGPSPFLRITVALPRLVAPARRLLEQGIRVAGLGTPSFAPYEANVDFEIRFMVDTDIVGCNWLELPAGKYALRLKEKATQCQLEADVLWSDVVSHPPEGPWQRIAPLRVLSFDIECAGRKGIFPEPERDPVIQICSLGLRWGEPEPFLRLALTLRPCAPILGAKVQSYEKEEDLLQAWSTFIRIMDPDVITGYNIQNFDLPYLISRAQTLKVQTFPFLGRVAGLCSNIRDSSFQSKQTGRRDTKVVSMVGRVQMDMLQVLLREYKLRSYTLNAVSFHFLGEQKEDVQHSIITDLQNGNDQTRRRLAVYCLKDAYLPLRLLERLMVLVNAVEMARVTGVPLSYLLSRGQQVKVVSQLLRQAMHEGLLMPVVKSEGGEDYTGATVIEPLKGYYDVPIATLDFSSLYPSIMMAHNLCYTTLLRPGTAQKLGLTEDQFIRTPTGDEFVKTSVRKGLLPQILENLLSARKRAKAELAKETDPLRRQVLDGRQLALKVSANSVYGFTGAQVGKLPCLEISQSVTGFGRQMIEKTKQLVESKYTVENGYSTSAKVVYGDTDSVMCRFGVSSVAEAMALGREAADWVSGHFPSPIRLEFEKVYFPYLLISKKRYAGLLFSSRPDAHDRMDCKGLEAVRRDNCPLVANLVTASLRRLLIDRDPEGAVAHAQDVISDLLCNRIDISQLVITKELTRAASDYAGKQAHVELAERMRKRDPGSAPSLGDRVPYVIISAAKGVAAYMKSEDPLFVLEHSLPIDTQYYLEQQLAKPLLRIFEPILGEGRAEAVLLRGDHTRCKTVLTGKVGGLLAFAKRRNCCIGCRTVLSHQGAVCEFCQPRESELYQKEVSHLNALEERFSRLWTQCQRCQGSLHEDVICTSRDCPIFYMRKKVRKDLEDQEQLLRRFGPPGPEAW
# UniProt Q9H2U2: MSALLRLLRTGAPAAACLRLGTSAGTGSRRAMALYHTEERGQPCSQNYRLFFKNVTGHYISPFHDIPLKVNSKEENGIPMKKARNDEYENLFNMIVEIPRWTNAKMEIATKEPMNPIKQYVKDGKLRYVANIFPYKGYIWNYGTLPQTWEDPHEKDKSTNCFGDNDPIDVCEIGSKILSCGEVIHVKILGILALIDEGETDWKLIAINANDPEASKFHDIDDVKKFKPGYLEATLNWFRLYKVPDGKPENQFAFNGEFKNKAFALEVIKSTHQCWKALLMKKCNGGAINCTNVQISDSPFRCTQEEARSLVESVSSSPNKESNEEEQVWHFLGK
# UniProt Q15181: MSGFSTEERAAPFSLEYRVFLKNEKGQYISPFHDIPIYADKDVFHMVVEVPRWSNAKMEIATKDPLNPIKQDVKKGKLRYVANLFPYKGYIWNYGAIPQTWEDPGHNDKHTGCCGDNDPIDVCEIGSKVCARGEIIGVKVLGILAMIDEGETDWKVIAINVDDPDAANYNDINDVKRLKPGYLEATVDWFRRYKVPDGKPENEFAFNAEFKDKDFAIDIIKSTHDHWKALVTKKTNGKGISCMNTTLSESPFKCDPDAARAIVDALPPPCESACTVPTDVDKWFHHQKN
# UniProt P0DPB6, whole entry, looked up: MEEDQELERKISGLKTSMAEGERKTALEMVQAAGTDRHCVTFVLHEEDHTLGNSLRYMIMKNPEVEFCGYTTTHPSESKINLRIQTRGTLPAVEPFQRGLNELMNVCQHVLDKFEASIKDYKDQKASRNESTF
# UniProt Q9NVS9: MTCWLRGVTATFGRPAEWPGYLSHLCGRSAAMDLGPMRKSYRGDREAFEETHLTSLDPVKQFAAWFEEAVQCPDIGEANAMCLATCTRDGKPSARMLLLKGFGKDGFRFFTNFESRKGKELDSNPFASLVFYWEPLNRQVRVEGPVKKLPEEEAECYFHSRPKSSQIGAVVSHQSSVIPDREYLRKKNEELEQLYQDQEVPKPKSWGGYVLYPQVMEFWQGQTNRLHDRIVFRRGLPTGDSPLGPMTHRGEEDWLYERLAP
# UniProt Q9Y2Y1: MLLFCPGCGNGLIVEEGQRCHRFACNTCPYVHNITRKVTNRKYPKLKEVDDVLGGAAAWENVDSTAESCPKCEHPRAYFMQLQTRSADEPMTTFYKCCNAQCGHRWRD
# UniProt O15160, whole entry, looked up: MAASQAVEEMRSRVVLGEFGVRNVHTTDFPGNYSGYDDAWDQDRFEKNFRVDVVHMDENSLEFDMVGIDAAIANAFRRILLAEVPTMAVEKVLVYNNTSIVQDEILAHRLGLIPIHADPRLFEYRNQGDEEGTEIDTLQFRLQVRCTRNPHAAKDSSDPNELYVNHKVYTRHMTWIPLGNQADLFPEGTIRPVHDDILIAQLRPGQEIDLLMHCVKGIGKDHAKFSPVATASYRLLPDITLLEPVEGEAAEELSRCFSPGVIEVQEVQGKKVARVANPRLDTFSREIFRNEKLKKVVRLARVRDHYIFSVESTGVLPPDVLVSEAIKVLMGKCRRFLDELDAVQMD
# UniProt P16435: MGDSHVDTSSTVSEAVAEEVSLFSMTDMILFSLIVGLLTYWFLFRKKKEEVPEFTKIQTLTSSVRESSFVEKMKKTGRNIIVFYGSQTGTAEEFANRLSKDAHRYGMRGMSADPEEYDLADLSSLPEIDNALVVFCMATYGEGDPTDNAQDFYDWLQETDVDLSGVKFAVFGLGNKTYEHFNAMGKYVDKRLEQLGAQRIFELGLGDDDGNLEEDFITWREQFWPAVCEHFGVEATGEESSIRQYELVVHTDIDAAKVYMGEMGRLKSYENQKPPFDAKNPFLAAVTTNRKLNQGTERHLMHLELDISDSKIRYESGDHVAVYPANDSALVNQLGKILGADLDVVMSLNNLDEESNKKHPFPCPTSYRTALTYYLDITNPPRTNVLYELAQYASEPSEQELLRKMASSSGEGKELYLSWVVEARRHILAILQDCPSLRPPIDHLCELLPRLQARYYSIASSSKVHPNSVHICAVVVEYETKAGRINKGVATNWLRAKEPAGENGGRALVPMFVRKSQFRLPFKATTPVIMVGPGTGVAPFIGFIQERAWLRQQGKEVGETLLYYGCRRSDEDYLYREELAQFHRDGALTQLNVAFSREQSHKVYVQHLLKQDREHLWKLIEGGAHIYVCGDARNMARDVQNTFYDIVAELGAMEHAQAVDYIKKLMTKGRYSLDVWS
# UniProt Q99575: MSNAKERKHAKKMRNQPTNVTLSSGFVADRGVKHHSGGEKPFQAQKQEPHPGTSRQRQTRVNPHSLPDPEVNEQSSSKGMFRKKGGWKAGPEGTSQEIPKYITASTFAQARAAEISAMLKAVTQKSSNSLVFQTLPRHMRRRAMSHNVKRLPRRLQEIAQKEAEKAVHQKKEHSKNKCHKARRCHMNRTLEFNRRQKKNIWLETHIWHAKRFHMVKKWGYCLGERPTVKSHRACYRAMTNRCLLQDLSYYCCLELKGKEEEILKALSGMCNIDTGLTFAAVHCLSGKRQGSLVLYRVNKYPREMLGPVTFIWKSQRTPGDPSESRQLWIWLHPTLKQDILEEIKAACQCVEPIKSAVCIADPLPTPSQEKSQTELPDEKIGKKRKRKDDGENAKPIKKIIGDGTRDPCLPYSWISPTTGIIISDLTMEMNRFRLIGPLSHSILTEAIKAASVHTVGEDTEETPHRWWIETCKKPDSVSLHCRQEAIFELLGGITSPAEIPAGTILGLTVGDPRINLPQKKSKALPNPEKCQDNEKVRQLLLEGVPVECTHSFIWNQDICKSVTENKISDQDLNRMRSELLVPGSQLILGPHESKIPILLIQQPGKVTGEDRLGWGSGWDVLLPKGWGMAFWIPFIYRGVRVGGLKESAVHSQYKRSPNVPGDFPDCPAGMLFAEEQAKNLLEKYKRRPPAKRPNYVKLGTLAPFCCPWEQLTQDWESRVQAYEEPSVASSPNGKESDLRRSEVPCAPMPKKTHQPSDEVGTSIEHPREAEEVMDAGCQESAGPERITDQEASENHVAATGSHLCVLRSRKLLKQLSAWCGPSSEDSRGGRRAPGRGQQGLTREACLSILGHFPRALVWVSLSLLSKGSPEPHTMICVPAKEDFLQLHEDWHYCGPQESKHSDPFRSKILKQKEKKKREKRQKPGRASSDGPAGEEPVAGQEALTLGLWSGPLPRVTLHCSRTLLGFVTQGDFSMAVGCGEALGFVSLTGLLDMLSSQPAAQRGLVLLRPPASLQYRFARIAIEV
# The other results are listed elsewhere or left out.
# Compound: CC1Cc2ccccc2N1C(=O)C1CCCN(C1)C(=O)CCl (mixture of isomers) [TRIM25 ligand 11 (diastereomer mixture)]
# Assay: probe-labelled cysteine peptide fold change vs DMSO (competition) (log2 fold change); higher = less target engagement (more negative = stronger competition)
# Conditions: 10 µM; THP-1; incubation time: 4 h
# 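Further: competitive chemoproteomic profiling in live THP-1 cells with an iodoacetamide desthiobiotin (IA-DTB) probe, comparing probe-labelled peptide intensities in compound-treated cells against DMSO-treated controls.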
row,Target,probe-labelled cysteine peptide fold change
1,POLR2B_P30876_1137_THTYECR (UniProt P30876),0.22
2,POLR3B_Q9NW08_1054_LGEMERDCLIGYGASMLLLER (UniProt Q9NW08),0.0847
3,PPAT_Q06203_503_SGHCTACLTGK (UniProt Q06203),0.157
4,POLR1B_Q9H9Y6_103_EANVYPAECR (UniProt Q9H9Y6),0.0526
5,POLR3E_Q9NVU0_676_LTQECGEDLSK (UniProt Q9NVU0),-0.00852
6,POLR3E_Q9NVU0_616_MLQDTVLAAGCK (UniProt Q9NVU0),0.0733
7,POLA1_P09884_584_AAPKPPFQSHFCVVSK (UniProt P09884),0.34
8,POLD1_P28340_1026_TVLSHQGAVCEFCQPR (UniProt P28340),-0.0534
9,PPA2_Q9H2U2_161_STNCFGDNDPIDVCEIGSK (UniProt Q9H2U2),0.0296
10,POLR1A_O95602_1289_VCLGEVLQK (UniProt O95602),0.0326
11,PPA1_Q15181_274_AIVDALPPPCESACTVPTDVDK (UniProt Q15181),0.0383
12,PPA1_Q15181_254_CDPDAAR (UniProt Q15181),-0.0372
13,POLR1D_P0DPB6_107_GLNELMNVCQHVLDK (UniProt P0DPB6),-0.0767
14,PNPO_Q9NVS9_156_LPEEEAECYFHSRPK (UniProt Q9NVS9),-0.0649
15,POLR3K_Q9Y2Y1_97_CCNAQCGHR (UniProt Q9Y2Y1),-0.244
16,POLR1C_O15160_256_CFSPGVIEVQEVQGK (UniProt O15160),-0.0104
17,POLE_Q07864_1935_IHCGLQDSQK (UniProt Q07864),-0.0394
18,POLR2B_P30876_224_SCLENSSRPTSTIWVSMLAR (UniProt P30876),-0.089

row,Target,probe-labelled cysteine peptide fold change
1,POGZ_Q7Z3K3_1230_GMLVMDCHR (UniProt Q7Z3K3),-0.112
2,POLD1_P28340_512_LAVYCLK (UniProt P28340),0.146
3,POLR1B_Q9H9Y6_454_TGLGLLQDSGLCVVADK (UniProt Q9H9Y6),0.0155
4,POR_P16435_434_HILAILQDCPSLRPPIDHLCELLPR (UniProt P16435),-0.137
5,PPIA_P62937_52_GFGYKGSCFHR (UniProt P62937),-0.00283
6,PPIA_P62937_161_ITIADCGQLE (UniProt P62937),0.0279
7,POGZ_Q7Z3K3_621+624_HLLCPYCLK (UniProt Q7Z3K3),-0.0243
8,POLA2_Q14181_590_QSPCIAVQVVR (UniProt Q14181),-0.103
9,POLR1E_Q9GZS1_14_WQYCGAPDGSQR (UniProt Q9GZS1),-0.193
10,POLD1_P28340_837_RDNCPLVANLVTASLRR (UniProt P28340),-0.3
11,POLD1_P28340_193_ELTGPAVLAVELCSR (UniProt P28340),-0.0441
12,POFUT1_Q9H488_249_NACAMLK (UniProt Q9H488),-0.122
13,PPIF_P30405_203_KIVITDCGQLS (UniProt P30405),-0.0274
14,PPIE_Q9UNP9_176_CLCTHEK (UniProt Q9UNP9),-0.0295
15,POLR2A_P24928_1430_CSFEETVDVLMEAAAHGESDPMK (UniProt P24928),-0.187
16,POP1_Q99575_270+283_ALSGMCNIDTGLTFAAVHCLSGK (UniProt Q99575),-0.0348
17,PPID_Q08752_181_LCVIAECGELK (UniProt Q08752),0.0345

# Same assay, conditions: 50 µM; THP-1; incubation time: 4 h
row,Target,probe-labelled cysteine peptide fold change
1,POLR2B_P30876_1137_THTYECR (UniProt P30876),0.0583
2,POLR3B_Q9NW08_1054_LGEMERDCLIGYGASMLLLER (UniProt Q9NW08),0.116
3,PPAT_Q06203_503_SGHCTACLTGK (UniProt Q06203),-0.211
4,POLR1B_Q9H9Y6_103_EANVYPAECR (UniProt Q9H9Y6),0.11
5,POLR3E_Q9NVU0_676_LTQECGEDLSK (UniProt Q9NVU0),0.0997
6,POLR3E_Q9NVU0_616_MLQDTVLAAGCK (UniProt Q9NVU0),-0.0994
7,POLA1_P09884_584_AAPKPPFQSHFCVVSK (UniProt P09884),0.231
8,POLD1_P28340_1026_TVLSHQGAVCEFCQPR (UniProt P28340),0.265
9,PPA2_Q9H2U2_161_STNCFGDNDPIDVCEIGSK (UniProt Q9H2U2),0.0346
10,POLR1A_O95602_1289_VCLGEVLQK (UniProt O95602),0.146
11,PPA1_Q15181_274_AIVDALPPPCESACTVPTDVDK (UniProt Q15181),-0.238
12,PPA1_Q15181_254_CDPDAAR (UniProt Q15181),-0.204
13,POLR1D_P0DPB6_107_GLNELMNVCQHVLDK (UniProt P0DPB6),-0.0948
14,PNPO_Q9NVS9_156_LPEEEAECYFHSRPK (UniProt Q9NVS9),-0.214
15,POLR3K_Q9Y2Y1_97_CCNAQCGHR (UniProt Q9Y2Y1),0.109
16,POLR1C_O15160_256_CFSPGVIEVQEVQGK (UniProt O15160),-0.00981
17,POLE_Q07864_1935_IHCGLQDSQK (UniProt Q07864),-0.0431
18,POLR2B_P30876_224_SCLENSSRPTSTIWVSMLAR (UniProt P30876),-0.0468

row,Target,probe-labelled cysteine peptide fold change
1,POGZ_Q7Z3K3_1230_GMLVMDCHR (UniProt Q7Z3K3),-0.1
2,POLD1_P28340_512_LAVYCLK (UniProt P28340),0.296
3,POLR1B_Q9H9Y6_454_TGLGLLQDSGLCVVADK (UniProt Q9H9Y6),-0.00727
4,POR_P16435_434_HILAILQDCPSLRPPIDHLCELLPR (UniProt P16435),-0.181
5,PPIA_P62937_52_GFGYKGSCFHR (UniProt P62937),0.0616
6,PPIA_P62937_161_ITIADCGQLE (UniProt P62937),-0.165
7,POGZ_Q7Z3K3_621+624_HLLCPYCLK (UniProt Q7Z3K3),-0.0165
8,POLA2_Q14181_590_QSPCIAVQVVR (UniProt Q14181),0.123
9,POLR1E_Q9GZS1_14_WQYCGAPDGSQR (UniProt Q9GZS1),-0.244
10,POLD1_P28340_837_RDNCPLVANLVTASLRR (UniProt P28340),-0.0981
11,POLD1_P28340_193_ELTGPAVLAVELCSR (UniProt P28340),0.181
12,POFUT1_Q9H488_249_NACAMLK (UniProt Q9H488),-0.133
13,PPIF_P30405_203_KIVITDCGQLS (UniProt P30405),0.0199
14,PPIE_Q9UNP9_176_CLCTHEK (UniProt Q9UNP9),0.072
15,POLR2A_P24928_1430_CSFEETVDVLMEAAAHGESDPMK (UniProt P24928),-0.147
16,POP1_Q99575_270+283_ALSGMCNIDTGLTFAAVHCLSGK (UniProt Q99575),0.0349
17,PPID_Q08752_181_LCVIAECGELK (UniProt Q08752),-0.183
